# Article PMC3229508
# Protein sequences, listed by entry. Tags and fused reporters are not part of them.
# UniProt Q9Z2L0: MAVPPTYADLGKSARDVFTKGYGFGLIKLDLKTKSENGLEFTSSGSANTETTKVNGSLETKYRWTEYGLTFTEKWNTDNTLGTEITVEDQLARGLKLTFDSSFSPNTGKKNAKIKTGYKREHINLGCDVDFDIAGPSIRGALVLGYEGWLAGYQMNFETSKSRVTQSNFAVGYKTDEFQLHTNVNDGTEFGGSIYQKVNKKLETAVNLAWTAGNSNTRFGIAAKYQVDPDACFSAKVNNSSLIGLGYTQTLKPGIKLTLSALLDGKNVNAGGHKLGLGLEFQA
# UniProt P21796: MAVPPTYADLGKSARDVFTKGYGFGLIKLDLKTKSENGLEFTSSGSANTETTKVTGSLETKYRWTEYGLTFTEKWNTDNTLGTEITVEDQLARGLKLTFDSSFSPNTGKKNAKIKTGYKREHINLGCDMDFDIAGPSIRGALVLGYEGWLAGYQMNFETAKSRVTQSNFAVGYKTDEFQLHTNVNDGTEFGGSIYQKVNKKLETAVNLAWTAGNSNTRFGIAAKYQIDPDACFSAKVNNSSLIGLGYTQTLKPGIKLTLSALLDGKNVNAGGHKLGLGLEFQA
# UniProt P63172: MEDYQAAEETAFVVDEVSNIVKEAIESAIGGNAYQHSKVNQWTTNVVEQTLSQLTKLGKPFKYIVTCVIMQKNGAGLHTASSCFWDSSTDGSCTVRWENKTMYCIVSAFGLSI
# UniProt Q9Z336: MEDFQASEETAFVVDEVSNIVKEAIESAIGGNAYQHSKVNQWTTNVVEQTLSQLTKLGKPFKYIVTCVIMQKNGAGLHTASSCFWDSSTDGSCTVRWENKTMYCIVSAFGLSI
# No constants are given. Whether binding was seen depends on the method and setting. For some assays here: In cells and extracts the contact can be indirect. Some binding calls cover weakened binding; strength is not graded here.
# Columns and labels:
# [1] = molecular target: VDAC1 (voltage-dependent anion channel 1), endogenous in neonatal rat cardiomyocytes (rat (endogenous in neonatal rat cardiomyocytes)) (UniProt Q9Z2L0); assay: co-IP; endogenous proteins in whole-cell lysates of CMs and HeLa cells (RIPA buffer, 2 mM PMSF, protease inhibitors); anti-DYNLT1 (goat E-16 or rabbit H-60) or anti-VDAC1 (FL-283) for 6 h at 4°C, protein A/G-Sepharose overnight at 4°C, washed with PBS; immunoblot; isotype controls
# [2] = molecular target: hVDAC1 (voltage-dependent anion channel 1), yeast two-hybrid bait from pDBleu-hVDAC1 (human) (UniProt P21796); assay: two-hybrid; library screen in yeast strain MaV203; bait pDBleu-hVDAC1, prey pPC86 cDNA library from human hepatocytes; selection plates lacking His and Trp, LacZ filter assay; prey plasmids re-transformed with the bait or control bait plasmids
# [3] = molecular target: DYNLT1 (dynein light chain Tctex-type 1), endogenous in HeLa cells (human (endogenous in HeLa)) (UniProt P63172); assay: co-IP; endogenous proteins in whole-cell lysates of CMs and HeLa cells (RIPA buffer, 2 mM PMSF, protease inhibitors); anti-DYNLT1 (goat E-16 or rabbit H-60) or anti-VDAC1 (FL-283) for 6 h at 4°C, protein A/G-Sepharose overnight at 4°C, washed with PBS; immunoblot; isotype controls
# [4] = molecular target: VDAC1 (voltage-dependent anion channel 1), endogenous in HeLa cells (human (endogenous in HeLa)) (UniProt P21796); assay: as above
# [5] = molecular target: DYNLT1 (dynein light chain Tctex-type 1), endogenous in neonatal rat cardiomyocytes (rat (endogenous in neonatal rat cardiomyocytes)) (UniProt Q9Z336); assay: as above
substance,measurement,setting,value
"DYNLT1 (dynein light chain Tctex-type 1), endogenous in neonatal rat cardiomyocytes (from UniProt Q9Z336 1-113)",binding,[1],binds
"DYNLT1 (dynein light chain Tctex-type 1), yeast two-hybrid prey clone from a human hepatocyte cDNA library (from UniProt P63172 1-113)",binding,[2],binds
"VDAC1 (voltage-dependent anion channel 1), endogenous in HeLa cells (from UniProt P21796 1-283)",binding,[3],binds
"DYNLT1 (dynein light chain Tctex-type 1), endogenous in HeLa cells (from UniProt P63172 1-113)",binding,[4],binds
"VDAC1 (voltage-dependent anion channel 1), endogenous in neonatal rat cardiomyocytes (from UniProt Q9Z2L0 1-283)",binding,[5],binds
